Experimental data from patent US20250381225A1 (DEVELOPMENT CENTER FOR BIOTECHNOLOGY, published 2025).
These are yes or no findings as the source states them, for the method shown. Some results given as binding are weak or reduced against the parent protein; the word gives no strength. For some assays here: Sequences can lack the tags named with a protein.

Sequences of proteins named here, by UniProt entry; tags and fusion partners are left off. Residues count along the entry.
UniProt Q15116, residues 25-167: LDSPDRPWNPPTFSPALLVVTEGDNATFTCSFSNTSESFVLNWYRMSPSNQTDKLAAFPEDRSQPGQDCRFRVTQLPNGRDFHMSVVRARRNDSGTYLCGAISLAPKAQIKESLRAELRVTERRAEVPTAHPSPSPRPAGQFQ

Columns and labels:
PD1-hFc [1] = molecular target: T1, PD1-hFc (UniProt Q15116 25-167); assay: ELISA on PD-1; protein from the CAR plasmid in 293T cells
T1 construct: ELISA coat at 1 ug/ml; not shown: hFc (human Fc)

PD1-hFc [2] = molecular target: T1, PD1-hFc; assay: ELISA on coated PD1-hFc
recombinant PD-1 protein = molecular target: T2, recombinant PD-1 protein (UniProt Q15116 25-167, limits assumed); assay: ELISA, recombinant PD-1 coated at 0.1 ug/well
T2 construct: It may or may not be the same reagent as PD1-hFc

| Binder | binding (PD1-hFc [1]) | binding (PD1-hFc [2]) | binding (recombinant PD-1 protein) |
| --- | --- | --- | --- |
| recombinant humanized 2B6 HuB1-scFv-Fc (Fc fusion, Both carry the same printed name and are kept as one molecule; also called 286 HuB1-scFv-Fc; PD-1^2B6 scFv-Fc; not shown: lim) scFv: EVQLVESGGGLVQPGGSLRLSCAASGFTFSSYTMSWVRQAPGKGLEWVATISGGGANIYYPDSVKGRFTISRDNSKNTLYLQMNSLRAEDTAVYYCVSPYYAIDFWGQGTLVTVSSGGGGSGGGGSGGGGSDIQMTQSPSSLSASVGDRVTITCKASQDVGSAVAWYQQKPGKAPKLLIYWASTRHTGVPSRFSGSGSGTDFTLTISSLQPEDFATYYCQQYSTYTWTFGQGTKVEIK | binds | binds |  |
| chimeric anti-human PD-1 2B6 antibody (antibody, V domains shown, also called mAb 2B6; M-M) VH: EVKLVESGGGLVKPGGSLKLSCAAAGFTFSSYTMSWVRQTPAKRLEWVATISGGGANIYYPDSVKGRFTISRDNARNTLYLQMSSLRSEDTAMYYCVSPYYAIDFWGQGTSVTVSS VL: DTVMTQSDKFMSTSVGDRVSITCKASQDVGSAVAWYQQKPGQSPKLLIYWASTRHTGVPDRFTGSGSGTDFTLTISNVQSEDLADYFCQQYSTYTWTFGGGTKLEIK |  |  | binds |
| humanized antibody 2B6 HdB1 Hd (antibody, V domains shown, Heavy chain HdB1 with light chain Hd) VH: EVQLVESGGGLVQPGGSLRLSCKASGFTFSSYTMSWVRQAPGKGLEWVATISGGGANIYYPDSVKGRFTISRDNSKNTLYLQMNSLRAEDTAVYYCVSPYYAIDFWGQGTLVTVSS VL: DIQMTQSPSSLSASVGDRVTITCKASQDVGSAVAWYQQKPGKAPKLLIYWASTRHTGVPSRFSGSGSGTDFTLTISSLQPEDFATYYCQQYSTYTWTFGQGTKVEIK |  | binds |  |
| humanized antibody 2B6 HuB1 Hd (antibody, V domains shown, Heavy chain HuB1 with light chain Hd) VH: EVQLVESGGGLVQPGGSLRLSCAASGFTFSSYTMSWVRQAPGKGLEWVATISGGGANIYYPDSVKGRFTISRDNSKNTLYLQMNSLRAEDTAVYYCVSPYYAIDFWGQGTLVTVSS VL: DIQMTQSPSSLSASVGDRVTITCKASQDVGSAVAWYQQKPGKAPKLLIYWASTRHTGVPSRFSGSGSGTDFTLTISSLQPEDFATYYCQQYSTYTWTFGQGTKVEIK |  | binds |  |
